Measured values reported in PubChem BioAssay.
The shares of active, inactive and inconclusive entries below differ from those in the screen. Potencies beside an inconclusive call are fits to weak or partial responses and may not hold up. Calls of active or inactive are those of the source. The limit is not given here; nearly all actives have AC50 up to about 23 µM.

Experiment: growth inhibition of DIPG glioma cells, dose response, cell-based, SU-DIPG-XIII, MIPE5.0, CellTiter-Glo, qHTS (AID 1347064);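 as to AC50: cells exposed to compound for 48 hours before the viability read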
Conditions: SU-DIPG-XIII viability, CellTiter-Glo ATP luminescence

With `CO[C@@H]1C(N(C)C(=O)c2ccccc2)C[C@H]2O[C@]1(C)n1c3ccccc3c3c4c(c5c6ccccc6n2c5c31)C(=O)NC4=O` (stereo not given in full) as the molecule, how does the AC50 read?
The AC50 was inconclusive: 6.61 µM [cytotoxic].

With `CN(C)c1ccc(-c2nc3ncc(Cl)c(N4CCN(CC(=O)Nc5nccs5)CC4)c3[nH]2)cc1` as the molecule, how does the AC50 read?
Its AC50 is active: 7.23 µM.

With `O=C(CCCCCCC(=O)Nc1ccc([C@H]2O[C@@H](CSc3nc(-c4ccccc4)c(-c4ccccc4)o3)C[C@@H](c3ccc(CO)cc3)O2)cc1)NO` as the molecule, how does the AC50 read?
Its AC50 is inconclusive: 0.000303 µM.

Which AC50 does the source give for `CC(C)C[C@H](NC(=O)CNC(=O)c1cc(Cl)ccc1Cl)B1OC(=O)CC(CC(=O)O)(C(=O)O)O1` (stereo not given in full) here?
Its AC50 is inconclusive: 0.148 µM [cytotoxic].

Which AC50 does the source give for `CO[C@H]1C[C@@H]2CC[C@@H](C)[C@@](O)(O2)C(=O)C(=O)N2CCCC[C@H]2C(=O)O[C@H]([C@H](C)C[C@@H]2CC[C@@H](OC(=O)C(C)(CO)CO)[C@H](OC)C2)CC(=O)[C@H](C)/C=C(\C)[C@@H](O)[C@@H](OC)C(=O)[C@H](C)C[C@H](C)/C=C/C=C/C=C/1C` here?
Its AC50 is inconclusive: 4.07 µM [cytotoxic].

With `CC[C@H](CC#N)OC(=O)N[C@@H](C)c1cccc(NC(=O)Nc2ccc(-c3cnco3)c(OC)c2)c1` as the molecule, how does the AC50 read?
The AC50 was inconclusive: 0.417 µM [cytotoxic].

With `CCNC(=O)Nc1ccc(-c2nc3c(c(N4CCOC[C@@H]4C)n2)CCN(C2COC2)C3)cc1` as the molecule, how does the AC50 read?
Its AC50 is inconclusive: 0.59 µM [cytotoxic].

Which AC50 does the source give for `CC(C)(O)CC(=O)NCCn1ccc2ncnc(Nc3ccc(Oc4cccc(C(F)(F)F)c4)c(Cl)c3)c21` here?
Its AC50 is inconclusive: 37.2 µM [cytotoxic].

Which AC50 does the source give for `CN(C)c1ccc(Nc2nc(N)n(C(=O)c3c(F)cccc3F)n2)cc1` here?
The AC50 was inconclusive: 18.6 µM [cytotoxic].

For `CCN(CCO)CCCOc1ccc2c(Nc3cc(CC(=O)Nc4cccc(F)c4)[nH]n3)ncnc2c1`, which AC50 is on record?
Its AC50 is inconclusive: 0.417 µM [cytotoxic].

Which AC50 does the source give for `O=C(Nc1cccc(Cl)c1)Nc1ncc(CCNc2ncnc3ccsc23)s1` here?
The AC50 was inconclusive: 20.9 µM [cytotoxic].

With `Cc1cccc(-c2[nH]c(C(C)(C)C)nc2-c2ccc3c(c2)OCO3)n1` as the molecule, how does the AC50 read?
The AC50 was active: 2.63 µM.

Which AC50 does the source give for `CC[C@@]1(O)C[C@H](O[C@H]2C[C@H](N(C)C)[C@H](O[C@H]3C[C@H](O)[C@H](O[C@H]4CCC(=O)[C@H](C)O4)[C@H](C)O3)[C@H](C)O2)c2c(cc3c(c2O)C(=O)c2c(O)cccc2C3=O)[C@H]1C(=O)OC` here?
The AC50 was active: 16.6 µM.

For `CC(=O)SCC(Cc1ccccc1)C(=O)NCC(=O)OCc1ccccc1` (stereo not given), which outcome is on record?
The outcome was “inactive”.

For `CCOc1ccc(Nc2nc(-c3c(C)nc4ccccn34)cs2)cc1`, which AC50 is on record?
Its AC50 is active: 0.059 µM.

With `COC(=O)Nc1nc2ccc(C(=O)c3ccccc3)cc2[nH]1` as the molecule, how does the AC50 read?
The AC50 was active: 0.417 µM.

For `C=C1C(=O)OC2/C=C(/C)CC/C=C(/C)CCC12` (stereo not given), which AC50 is on record?
The AC50 was inconclusive: 18.6 µM [cytotoxic].

With `O=c1[nH]nc(Sc2ncc([N+](=O)[O-])s2)n1-c1ccc2c(c1)OCCO2` as the molecule, how does the AC50 read?
Its AC50 is active: 3.72 µM.

Which outcome does the source give for `CC(C)(C)NCC(O)c1ccc(O)c(CO)c1` (stereo not given) here?
Its outcome is “inactive”.

Which AC50 does the source give for `O=C(O)c1ccc2c(c1)nc(Nc1cccc(Cl)c1)c1ccncc12` here?
Its AC50 is inconclusive: 6.61 µM [cytotoxic].

Which AC50 does the source give for `CS(=O)(=O)N1CCc2c(-c3cnc(N)nc3)nc(N3CCOCC3)nc21` here?
Its AC50 is active: 1.18 µM.

With `COc1cc2ncnc(Nc3cccc(Cl)c3)c2cc1OC` as the molecule, how does the AC50 read?
The AC50 was inconclusive: 0.0417 µM.

With `CC1(C)CCC2=C(O1)c1ccccc1C(=O)C2=O` as the molecule, how does the AC50 read?
The AC50 was active: 6.61 µM.

With `CCCCc1ccc2nc(NC(=O)OC)[nH]c2c1` as the molecule, how does the AC50 read?
Its AC50 is inconclusive: 1.32 µM [cytotoxic].

For `CN1c2ccccc2C(=O)N2CCc3c([nH]c4ccccc34)C21` (stereo not given), which AC50 is on record?
The AC50 was inconclusive: 0.263 µM [cytotoxic].

With `CN(C)c1nc(N(C)C)nc(N(C)C)n1` as the molecule, how does the outcome read?
The outcome was “inactive”.

Which AC50 does the source give for `O=C(NCCCNc1nc(Nc2cccc(NC(=O)N3CCCC3)c2)ncc1I)c1cccs1` here?
Its AC50 is inconclusive: 4.68 µM [cytotoxic].

With `CCC(C)SSc1ncc[nH]1` (stereo not given) as the molecule, how does the AC50 read?
The AC50 was inconclusive: 0.00118 µM.

For `O=C1[C@H](Cc2ccc(O)cc2)N2C(=O)CCN(C(=O)NCc3ccccc3)[C@H]2CN1Cc1cccc2ccccc12`, which AC50 is on record?
Its AC50 is inconclusive: 11.8 µM [cytotoxic].

With `CC(C)C[C@@H](N)[C@H](O)C(=O)N[C@H](C(=O)N[C@H](C(=O)N[C@@H](CC(=O)O)C(=O)O)C(C)C)C(C)C` as the molecule, how does the outcome read?
The outcome was “inactive”.

For `Cc1c[nH]c(/C=C2\C(=O)Nc3ccccc32)c1CCC(=O)O`, which AC50 is on record?
Its AC50 is inconclusive: 18.6 µM [cytotoxic].

For `Clc1ccc(COC(Cn2ccnc2)c2ccc(Cl)cc2Cl)c(Cl)c1` (stereo not given), which AC50 is on record?
The AC50 was inconclusive: 23.5 µM [cytotoxic].

Which AC50 does the source give for `CC1(C)O[C@@H]2C[C@H]3[C@@H]4CCC5=CC(=O)C=C[C@]5(C)[C@H]4[C@@H](O)C[C@]3(C)[C@]2(C(=O)CO)O1` here?
Its AC50 is inconclusive: 37.2 µM.

With `CCCCc1nc2cc(/C=C/C(=O)NO)ccc2n1CCN(CC)CC` as the molecule, how does the AC50 read?
The AC50 was active: 1.32 µM.

Which AC50 does the source give for `COc1ccc(-c2oc3c(CC=C(C)C)c(O)cc(O)c3c(=O)c2O)cc1` here?
Its AC50 is active: 16.6 µM.

With `COc1cc(F)c(F)c(Nc2ccc(I)cc2F)c1NS(=O)(=O)C1(C[C@H](O)CO)CC1` as the molecule, how does the AC50 read?
Its AC50 is active: 0.235 µM.

For `CN1CCC(=C2c3ccccc3CC(=O)c3sccc32)CC1`, which AC50 is on record?
The AC50 was inconclusive: 11.8 µM [cytotoxic].

Which AC50 does the source give for `OC(c1cc(C(F)(F)F)nc2c(C(F)(F)F)cccc12)C1CCCCN1` (stereo not given) here?
The AC50 was inconclusive: 37.2 µM [cytotoxic].

With `CN(C)C/C=C/C(=O)Nc1cc2c(Nc3ccc(F)c(Cl)c3)ncnc2cc1O[C@H]1CCOC1` as the molecule, how does the AC50 read?
The AC50 was inconclusive: 16.6 µM [cytotoxic].

With `Cc1cc(C(=O)NOCCO)c(Nc2ccc(I)cc2F)n(C)c1=O` as the molecule, how does the AC50 read?
Its AC50 is active: 0.132 µM.
